Laboratory results taken from patent US7385051B2, “Fluorescent N2,N3-etheno-purine (2′-deoxy) riboside derivatives and uses thereof” (Bar-llan University, priority 2005, dated 2008).

How the values were obtained:
[1] = system: UMP; assay: Base-pairing by IR spectra of 1:1 nucleotide mixtures in D2O, with UMP; conditions: shift to higher frequencies, 1500-1800 cm^−1, 20 mM, 0.1 M NaCl
[2] = system: CMP; assay: Base-pairing by IR spectra of 1:1 nucleotide mixtures in D2O, with CMP

| SMILES | IR shift of the 1:1 mixture with U vs calculated sum of spectra [1] [cm⁻¹] | IR shift of the mixture with CMP vs calculated sum of spectra ([2]; shift to lower frequencies, 20 mM, 0.1 M NaCl) [cm⁻¹] | IR spectrum of the 1:1 mixture with C vs calculated sum ([2]; 1500-1800 cm^−1) |
| --- | --- | --- | --- |
| Nc1nc2nccn2c2c1ncn2C1OC(COP(=O)(O)O)C(O)C1O (stereo not shown) [30a′] | 6 | 7 |  |
| Nc1ncnc2c1ncn2[C@@H]1O[C@H](COP(=O)(O)O)[C@@H](O)[C@H]1O [A, reference compound] | 7 |  | identical to the calculated sum |
